Results deposited as PubChem BioAssay AID1224829 (NIAID, 2016).
The whole screen tested about 3,800 reagents; this is a random part of them. 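Calls cover raised and lowered translocation; gene median uses one vendor's three siRNAs; qiagen siRNAs acted more weakly than ambion siRNAs.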 A number with no mark means an inactive call. Reagents against one gene are numbered here. Further read-outs or replicates are left out here. Reagent sequences are not shown.

Test: 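Genes needed for LPS-driven NF-kappaB p65 nuclear entry in mouse macrophages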 (follow-up of hits)
System: mouse RAW264.7 G9 macrophage reporter cells
Knock-down reagent: single siRNA against mouse genes, 100 nM
Time to read-out: 2 days of siRNA knock-down, then 40 min of LPS before fixing
Challenge: LPS (Salmonella minnesota R595) at 10 ng/ml
Detection: 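High-content images after 40 min LPS exposure; GFP-p65 nucleus to surrounding ring signal ratio, normalised to plate median and non-targeting control wells, expressed as z-score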
Direction: p65 translocation z-score: higher = more nuclear NF-kappaB p65 after LPS
Rule for the call: 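An siRNA is called active when the mean z-score of its two replicates is above 2 or below -2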
Meaning of the calls: active = changed p65 translocation (either direction); inactive = no clear change

For Add2 #1, siRNA vendor or control pool ambion single siRNA, the entry reads p65 translocation z-score, replicate mean 1.04.
Add2 #2, siRNA vendor or control pool ambion single siRNA showed p65 translocation z-score, replicate mean 0.554.
Add2 #3, siRNA vendor or control pool ambion single siRNA gave p65 translocation z-score, replicate mean -1.16.
Add2 #4, siRNA vendor or control pool qiagen single siRNA gave p65 translocation z-score, replicate mean 1.41.
Add2 #5, siRNA vendor or control pool qiagen single siRNA showed p65 translocation z-score, replicate mean -0.218.
For Add2 #6, siRNA vendor or control pool qiagen single siRNA the deposit lists p65 translocation z-score, replicate mean -3.83 (active).
With Traf2 #1, siRNA vendor or control pool ambion single siRNA, the entry reads p65 translocation z-score, replicate mean 1.1.
For Traf2 #2, siRNA vendor or control pool ambion single siRNA, the values are p65 translocation z-score, replicate mean -1.37.
For Traf2 #3, siRNA vendor or control pool ambion single siRNA, the entry reads p65 translocation z-score, replicate mean -6.47 (active).
For Traf2 #4, siRNA vendor or control pool qiagen single siRNA, the entry reads p65 translocation z-score, replicate mean -0.678.
Traf2 #5, siRNA vendor or control pool qiagen single siRNA gave p65 translocation z-score, replicate mean 2.4 (active).
For Traf2 #6, siRNA vendor or control pool qiagen single siRNA the deposit lists p65 translocation z-score, replicate mean -0.431.
With Hoxc8 #1, siRNA vendor or control pool ambion single siRNA, the entry reads p65 translocation z-score, replicate mean -6.22 (active).
Hoxc8 #2, siRNA vendor or control pool ambion single siRNA gave p65 translocation z-score, replicate mean -2.03 (active).
With Hoxc8 #3, siRNA vendor or control pool ambion single siRNA the deposit lists p65 translocation z-score, replicate mean -0.822.
Hoxc8 #4, siRNA vendor or control pool qiagen single siRNA gave p65 translocation z-score, replicate mean 1.21.
For Hoxc8 #5, siRNA vendor or control pool qiagen single siRNA, the entry reads p65 translocation z-score, replicate mean 1.72.
Hoxc8 #6, siRNA vendor or control pool qiagen single siRNA showed p65 translocation z-score, replicate mean 1.41.
Eif3g #1, siRNA vendor or control pool ambion single siRNA scored p65 translocation z-score, replicate mean -1.24.
With Eif3g #2, siRNA vendor or control pool ambion single siRNA, the values are p65 translocation z-score, replicate mean -0.293.
Eif3g #3, siRNA vendor or control pool ambion single siRNA gave p65 translocation z-score, replicate mean -2.16 (active).
With Eif3g #4, siRNA vendor or control pool qiagen single siRNA, the values are p65 translocation z-score, replicate mean -1.49.
Eif3g #5, siRNA vendor or control pool qiagen single siRNA gave p65 translocation z-score, replicate mean -0.671.
With Eif3g #6, siRNA vendor or control pool qiagen single siRNA, the values are p65 translocation z-score, replicate mean -0.444.
